Data from PubChem BioAssay AID2685 (National Center for Advancing Translational Sciences (NCATS), 2010).
Among all 320,000 compounds or so, about 2,100 (0.66%) were called active. The shares of active, inactive and inconclusive entries below differ from those in the screen. The call rests on the fitted dose curve; in most records, active means well fitted inhibition curve with a large enough effect in the signal ratio, with a control signal flat (not every such curve was filed as active); inconclusive means small, poorly fitted or top-dose-only effect, or effect the other way, or a change in a side signal; inactive means flat fitted curve, though single readings scatter; the % refers to the signal ratio. Potencies beside an inconclusive call are fits to weak or partial responses and may not hold up.

assay: qHTS Assay for Lipid Storage Modulators in Drosophila S3 Cells; conditions: BODIPY lipid droplet fluorescence, 18-24 h, cells fed with added oleic acid; lipid storage change, negative = inhibition: at 46.1 µM (top of the series) unless noted
In short: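 Laser-scanning cytometry quantifies lipid droplet accumulation (500–530 nm total intensity; droplet/cell object ratio) in oleic acid-fed (400 uM added) Drosophila S3 cells treated with a concentration series. 20 uM Triacsin C defined 100% inhibition.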
On the % scale 0 is the no-effect control and ±100 the full control effect; potency means the concentration at half of the fitted maximal effect.

Row | SMILES | Potency | lipid storage change, negative = inhibition | outcome
1 | Cc1c(C(=O)N2CC[C@@H](N3CCC(O)CC3)[C@H](O)C2)[nH]c2ccc(Cl)cc12 | inconclusive: 18.4 µM [activator, single point] | – | –
2 | CCN(CC)C(=O)CSC(Nc1ccc(F)cc1)=C(C#N)C#N | – | inconclusive: 15.1% | –
3 | O=C(Nc1ccc2c(c1)OCCO2)C1CCN(S(=O)(=O)c2cccc3nsnc23)CC1 | – | inconclusive: -18.7% | –
4 | O=C(CSc1ccc(-c2ccccc2)nn1)N1CCCc2ccccc21 | – | inconclusive: 12.1% | –
5 | COC(=O)c1ccc(/C=N/OCC(=O)NC2CCCC(C)C2C)cc1 (centres undefined) | – | inconclusive: 447% | –
6 | O=C1[C@@H]2Cc3c([nH]c4ccccc34)CN2C(=O)CN1CCCO | – | inconclusive: 32.4% | –
7 | CCN(CC)CCn1c(OC)cc(=O)[nH]c1=O | – | inconclusive: -31.5% | –
8 | CC1CCCCC1NC(=O)COC(=O)CCC(=O)c1cccs1 (centres undefined) | – | inconclusive: 4.8% | –
9 | Cc1ccc(OCCCC(=O)N2CCN(S(=O)(=O)c3cccc(F)c3)CC2)cc1 | – | inconclusive: 34.5% | –
10 | O=C(CNc1cccc(S(=O)(=O)N2CCOCC2)c1)N1CCc2ccccc21 | – | inconclusive: 7.48% | –
11 | O=C(CSc1nnc(NC(=O)c2c(F)cccc2F)s1)NC1CCCCC1 | inconclusive: 4.11 µM [activator, single point] | – | –
12 | Cc1ccc(OCC(=O)OCC(=O)Nc2sccc2C(N)=O)cc1C | – | inactive: 4.32% | –
13 | CCOC(=O)c1cc(C#N)c(SCC(N)=O)[nH]c1=O | inconclusive: 1.16 µM [falling, full curve, poor fit] | – | –
14 | CC1CCCN(C(=O)c2ccc(NS(=O)(=O)c3ccc4[nH]c(=O)[nH]c4c3)cc2)C1 (centres undefined) | – | inconclusive: 450% | –
15 | C=CCn1c(N)cc(=O)nc1SCC(=O)N1CCN(c2ccc(F)cc2)CC1 | – | inconclusive: -12.8% | –
16 | CC(=O)Nc1cc(NC(C)=O)c2nc(N)sc2c1 | – | inconclusive: 2.56% | –
17 | CCOc1ccc(Br)cc1S(=O)(=O)N1CC(C)OC(C)C1 (centres undefined) | – | inconclusive: 1.44% | –
18 | COc1cc(/C=N/NC(=O)c2cccc(NC(=O)c3ccccc3Cl)c2)ccc1O | – | inconclusive: 9.72% | –
19 | Cc1coc2c1c(C)cc1oc(=O)c(CC(=O)N[C@H](C(=O)O)C(C)C)c(C)c12 | – | inconclusive: 4.61% | –
20 | CCOC(=O)/C=c1\s/c(=C\c2ccc3cc(OC)ccc3c2)c(=O)n1CC(=O)NCC1CCCO1 (centres undefined) | – | inconclusive: -6.86% | –
21 | COc1ccc2cc(C(c3nnnn3CCc3ccccc3)N3CCCC(C)C3)c(=O)[nH]c2c1 (centres undefined) | – | inconclusive: -4% | –
22 | C/C(=C\c1ccccc1)C(=O)Nc1cc(C)on1 | inconclusive: 0.116 µM [cytotoxic, full curve, poor fit] | – | –
23 | O=C(Nc1ccccc1N1CCN(C(=O)c2ccc(Cl)cc2)CC1)c1ccc([N+](=O)[O-])o1 | – | inconclusive: -22.9% | –
24 | COc1ccccc1CC(=O)Nc1sc2c(c1C(N)=O)CCCC2 | inconclusive: 0.411 µM [activator, partial curve] | – | –
25 | Cc1cc(C(=O)CSc2nnc(-c3cccs3)n2Cc2ccccc2)c(C)n1C | inconclusive: 10.3 µM [activator, partial curve] | – | –
26 | Cc1cc(C)n(C(=O)C(C(=O)c2ccccc2)C(C)C)n1 (centres undefined) | – | inconclusive: 16% | –
27 | COC(=O)c1sc2ncccc2c1OCc1ccccc1Cl | – | inactive: -7.27% | –

Full records, looked up by structure. Values in the order: Potency	lipid storage change, negative = inhibition	outcome
`Cc1cc(C)n(C(=O)C(C(=O)c2ccccc2)C(C)C)n1` (centres undefined) in the list: –	inconclusive: 16%	–
`O=C(CSc1ccc(-c2ccccc2)nn1)N1CCCc2ccccc21` in the list: –	inconclusive: 12.1%	–

(more compounds)

Row | SMILES | Potency | lipid storage change, negative = inhibition | outcome
28 | CCOC(=O)CSc1nc2ccccc2n2c(C)nnc12 | – | inconclusive: 7.02% | –
29 | O=C1C(=O)N(CC2CCCO2)C(c2ccco2)/C1=C(/O)c1ccc(F)cc1 (centres undefined) | – | inconclusive: 9.36% | –
30 | COCCCn1c(SCC(=O)N2CCCC(C)C2)nnc1-c1ccco1 (centres undefined) | inconclusive: 20.6 µM [activator, single point] | – | –
31 | COc1ccc2cc3cc(C(=O)NC4CC4)sc3nc2c1 | inconclusive: 0.731 µM [activator, partial curve] | – | –
32 | COc1ccccc1/C=C/C1C(C(=O)OCC(C)C)=C(C)N=C2SCCC(=O)N21 (centres undefined) | – | inactive: 3.95% | –
33 | COc1cc(NC(=O)c2sc3nc(C)nc(N4CCOCC4)c3c2C)cc(OC)c1OC | inconclusive: 29.1 µM [activator, single point] | – | –
34 | CCOC(=O)c1cnc2c(Cl)cccc2c1NCCCN1CCOCC1 | – | inconclusive: 41.7% [activator] | –
35 | CCC(=O)c1ccc(OCC(=O)OCC(=O)NCCC2=CCCCC2)cc1 | – | inconclusive: -82.7% [at 0.0737 µM] | –
36 | CSc1ccc(CN2CCSCC2)cc1 | inconclusive: 29.1 µM [activator, single point] | – | –
37 | O=C1c2ccccc2C(Nc2ccc(-c3nc4ccccc4[nH]3)cc2)N1Cc1ccco1 (centres undefined) | – | inconclusive: -0.224% | –
38 | CCc1nnc(NC(=O)CSc2ncc(-c3ccccc3)n2CC)s1 | – | inconclusive: 10.2% | –
39 | COc1ccc(S(=O)(=O)Nc2cccc(N(C)S(C)(=O)=O)c2)cc1C | – | inconclusive: -25.4% | –
40 | O=C(Cc1ccccc1)c1nnc(-c2ccccc2)o1 | – | inconclusive: 28.1% | –
41 | CCN1CCN(S(=O)(=O)c2ccc(S(=O)(=O)NCC3CCCO3)cc2)CC1 (centres undefined) | inconclusive: 29.1 µM [activator, single point] | – | –
42 | Cc1oc(C)c(C(=O)NCCCC(=O)O)c1C(=O)NCCCC(=O)O | – | inconclusive: 13.1% | –
43 | CN(Cc1nc(-c2ccncc2)no1)S(=O)(=O)c1ccc(Cl)cc1 | – | inconclusive: 43.6% | –
44 | CCCCC1(Cc2ccc([N+](=O)[O-])cc2)C(=O)N(c2ccccc2)N(c2ccccc2)C1=O | – | inconclusive: -21% | –
45 | COc1cc(NC(=O)c2onc(C)c2Cl)c(OC)cc1Cl | – | inconclusive: -5.65% | –
46 | CCN(c1ccccc1)S(=O)(=O)c1ccc(C(=O)Nc2cc(C)ccn2)cc1 | inconclusive: 1.46 µM [falling, single point] | – | –
47 | C/C(=N/NS(=O)(=O)c1cc(C)ccc1C)c1c[nH]c2ccccc12 | – | inconclusive: -31.1% | –
48 | Cc1c(Cl)cccc1NC(=O)c1cc(-c2ccccc2O)n[nH]1 | – | inconclusive: 6.77% | –
49 | COc1ccc(CN(CCCN2CCOCC2)C(=O)Nc2ccccc2)cc1OC | – | inconclusive: 49.2% | –
50 | C[N+]1(CC2COC3(CCCCC3)O2)CCCCC1 (centres undefined) | – | inconclusive: -25% | –
51 | O=C(COc1ncnc2ccccc12)Nc1cccc([N+](=O)[O-])c1 | inconclusive: 6.51 µM [falling, single point] | – | –
52 | O=C1CCC/C(=N/Nc2ccc(Cl)cc2)C1 | inconclusive: 0.461 µM [activator, full curve, poor fit] | – | –
53 | CCOc1ccc(C(=O)NCc2ccccn2)cc1 | – | inconclusive: -17.1% | –
54 | CCOc1ccccc1C(=O)NC(C(=O)Nc1ccccc1N1CCOCC1)C(C)C (centres undefined) | inconclusive: 1.84 µM [activator, partial curve] | – | –

Row | SMILES | Potency | lipid storage change, negative = inhibition | outcome
55 | Cc1ccc(S(=O)(=O)N2CCOCC2)cc1C(=O)Nc1ccc2c(c1)OCCO2 | – | inconclusive: -13.2% | –
56 | COc1cc(/C=N/N2CCN(c3ccccc3OC)CC2)ccc1O | – | inconclusive: -13.5% | –
57 | O=C(O)C1CC=CCC1C(=O)Nc1cccc([N+](=O)[O-])c1 (centres undefined) | – | inconclusive: 16.4% [at 9.22 µM] | –
58 | CC(C)CNC(=O)c1cccc(NC(=O)C2CCCO2)c1 (centres undefined) | inconclusive: 0.731 µM [falling, full curve, poor fit] | – | –
59 | O=c1[nH]c(CN2CCOCC2)nc2ccccc12 | – | inconclusive: -10.6% | –
60 | FC(F)Oc1ccc(NC(=S)N2CCN(Cc3ccccc3)CC2)cc1 | – | inconclusive: -4.79% | –
61 | O=C(NNC(=O)C1CCN(S(=O)(=O)c2c(Cl)cccc2Cl)CC1)c1ccccc1O | – | inconclusive | –
62 | CCOC(=O)c1cnc2c(cnn2C)c1NCCCn1ccnc1 | – | inconclusive: 0.873% | –
63 | CCn1c(SC(C)C(=O)NCC2CCCO2)nc2ccccc21 (centres undefined) | inconclusive: 32.6 µM [activator, partial curve, poor fit] | – | –
64 | CCCCNC(=O)c1ccc2c(c1)N(C)C(=O)c1ccccc1S2 | – | inconclusive: 37% | –
65 | CC(=O)C1=C(C)NC(=O)NC1c1cccc(O)c1 (centres undefined) | – | inconclusive: -72.2% | –
66 | Cc1noc(/C=C/N(C)C)c1S(=O)(=O)N1CCCC(C(=O)NCc2ccccc2Cl)C1 (centres undefined) | – | inconclusive: 51.7% | –
67 | COc1cccc(N2CCN(CC(=O)Nc3nnc(-c4ccccc4)s3)CC2)c1 | – | inconclusive: -59.5% | –
68 | O=C(Cc1ccccc1)NC(=S)Nc1ccc(OC(F)F)cc1 | – | inconclusive: 21.2% | –
69 | COC(=O)C1=C(C)NC(=O)NC1c1ccc(-c2ccc(F)cc2)o1 (centres undefined) | – | inconclusive: -11% | –
70 | O=S(=O)(c1ccc(OCC(O)CN2CCN(c3ccccc3Cl)CC2)cc1)N1CCOCC1 (centres undefined) | – | inconclusive: 51.2% | –
71 | CC1=C(C(=O)OCc2ccccc2)C(c2cccnc2)n2nnnc2N1 (centres undefined) | inconclusive: 16.4 µM [falling, single point] | – | –
72 | CCOc1ccc(C2C(C#N)=C(N)Oc3cc(C)n(CCN(C)C)c(=O)c32)cc1OCC (centres undefined) | – | inconclusive: 30.1% | –
73 | CCOC(=O)N1CCN(C(=O)c2cn(C)c3ccc(S(=O)(=O)N(C)C4CCCCC4)cc3c2=O)CC1 | – | inconclusive: -16.8% | –
74 | CC(NC(=O)c1cccnc1)C(c1cccs1)N1CCN(c2ccccc2F)CC1 (centres undefined) | – | inconclusive: -20.3% | –
75 | COc1ccc(C(=O)O)cc1F | – | inconclusive: -2.63% | –
76 | Cc1cccc(C)c1N1CCN(C(=O)c2ccc3c(c2)OCO3)CC1 | inconclusive: 0.13 µM [activator, full curve, poor fit] | – | –
77 | CSc1nnnn1CCn1nnnc1SC | – | inconclusive: 39.3% | –
78 | CNS(=O)(=O)c1ccc(NC(=O)c2cncc(Br)c2)cc1 | – | – | inactive [at 46.1 µM]
79 | O=C(COc1ccccc1)N=C1SC2CS(=O)(=O)CC2N1CCc1ccccc1 (centres undefined) | – | inconclusive: -19.2% | –

Among those listed so far, four have a COOH group.
Row | SMILES | Potency | lipid storage change, negative = inhibition | outcome
19 | Cc1coc2c1c(C)cc1oc(=O)c(CC(=O)N[C@H](C(=O)O)C(C)C)c(C)c12 | – | inconclusive: 4.61% | –
42 | Cc1oc(C)c(C(=O)NCCCC(=O)O)c1C(=O)NCCCC(=O)O | – | inconclusive: 13.1% | –
57 | O=C(O)C1CC=CCC1C(=O)Nc1cccc([N+](=O)[O-])c1 (centres undefined) | – | inconclusive: 16.4% [at 9.22 µM] | –
75 | COc1ccc(C(=O)O)cc1F | – | inconclusive: -2.63% | –
